In patent US20120058120A1, “Targets for Growth Factor Signalling and Methods of Therapy” (priority 2009, published 2012):
Results are given in words; binding and its absence hold for the method and conditions named. Binding calls can cover weak binding; strength is not graded here.

By UniProt entry, the sequences of proteins in these tests, tags left out. Where a name states a change or a piece, a line headed by the entry shows the natural chain unless it says otherwise. Residues count along the entry.
UniProt P08069, residues 31-935: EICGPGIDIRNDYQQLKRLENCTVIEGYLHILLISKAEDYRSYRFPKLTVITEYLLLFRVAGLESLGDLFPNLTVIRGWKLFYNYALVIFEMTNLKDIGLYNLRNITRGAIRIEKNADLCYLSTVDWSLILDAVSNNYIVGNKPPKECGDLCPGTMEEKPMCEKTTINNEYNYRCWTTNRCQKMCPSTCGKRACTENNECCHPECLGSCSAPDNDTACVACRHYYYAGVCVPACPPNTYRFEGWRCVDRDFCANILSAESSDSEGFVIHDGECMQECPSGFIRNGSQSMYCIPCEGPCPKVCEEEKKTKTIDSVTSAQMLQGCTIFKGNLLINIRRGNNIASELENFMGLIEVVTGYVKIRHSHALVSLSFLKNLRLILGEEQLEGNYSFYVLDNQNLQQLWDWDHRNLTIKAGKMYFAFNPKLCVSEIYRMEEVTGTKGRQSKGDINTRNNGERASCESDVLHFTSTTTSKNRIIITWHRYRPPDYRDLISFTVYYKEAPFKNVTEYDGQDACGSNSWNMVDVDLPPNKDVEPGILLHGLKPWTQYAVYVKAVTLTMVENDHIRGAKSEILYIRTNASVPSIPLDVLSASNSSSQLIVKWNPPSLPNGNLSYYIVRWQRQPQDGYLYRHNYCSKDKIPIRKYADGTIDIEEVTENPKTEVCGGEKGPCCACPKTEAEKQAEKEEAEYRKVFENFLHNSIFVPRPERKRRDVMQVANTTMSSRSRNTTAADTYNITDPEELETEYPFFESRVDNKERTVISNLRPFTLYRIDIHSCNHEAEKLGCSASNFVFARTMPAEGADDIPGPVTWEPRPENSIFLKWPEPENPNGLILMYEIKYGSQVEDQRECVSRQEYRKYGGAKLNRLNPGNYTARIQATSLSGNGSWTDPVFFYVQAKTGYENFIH
UniProt P05019, residues 49-118: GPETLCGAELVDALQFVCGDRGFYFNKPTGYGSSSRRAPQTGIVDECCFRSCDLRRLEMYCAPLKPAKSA
UniProt P21980: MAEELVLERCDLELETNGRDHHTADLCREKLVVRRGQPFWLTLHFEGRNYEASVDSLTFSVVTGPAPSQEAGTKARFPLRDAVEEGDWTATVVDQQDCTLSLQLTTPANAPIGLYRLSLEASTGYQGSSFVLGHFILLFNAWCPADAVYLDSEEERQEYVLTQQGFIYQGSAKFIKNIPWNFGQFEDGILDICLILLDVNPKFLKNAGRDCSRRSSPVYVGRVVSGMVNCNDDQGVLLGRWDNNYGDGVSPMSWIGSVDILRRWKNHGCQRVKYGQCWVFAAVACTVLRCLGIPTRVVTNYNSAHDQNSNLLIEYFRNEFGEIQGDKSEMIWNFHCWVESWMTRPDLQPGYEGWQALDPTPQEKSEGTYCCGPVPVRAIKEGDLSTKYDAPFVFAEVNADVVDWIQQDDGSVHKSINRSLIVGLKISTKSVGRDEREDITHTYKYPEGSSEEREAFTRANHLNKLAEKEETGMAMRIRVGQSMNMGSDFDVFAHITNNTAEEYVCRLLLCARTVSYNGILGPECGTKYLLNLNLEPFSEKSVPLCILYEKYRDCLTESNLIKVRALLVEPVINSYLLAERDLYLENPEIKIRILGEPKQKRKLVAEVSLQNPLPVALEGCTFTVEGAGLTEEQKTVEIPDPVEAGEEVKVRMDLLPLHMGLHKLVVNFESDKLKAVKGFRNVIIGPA

Tests used:
[1] = target: recombinant extracellular domain of IGF1R (UniProt P08069); experiment: TG2 crosslinking reaction (1 h, 1 mM CaCl2, pH 7.5), reducing SDS-PAGE, Western blot for IGF-I
[2] = target: insulin-like growth factor I (IGF-I) (UniProt P05019); experiment: as above
[3] = target: insulin-like growth factor I (IGF-I) (UniProt P05019); experiment: IGF-I reacted with TG2, SDS-PAGE and Western blot for IGF-I

Measured: binding

transglutaminase 2 (TG2, tissue transglutaminase) (from UniProt P21980) (enzyme)
binds: all assays above
